Results on 5 molecules are retold here after the M2OR odorant receptor database.

Details in all cases: stereoisomer not certain
One assay addresses T1, OR5T1 (Homo sapiens) (UniProt Q8NG75).
T1 sequence (whole entry): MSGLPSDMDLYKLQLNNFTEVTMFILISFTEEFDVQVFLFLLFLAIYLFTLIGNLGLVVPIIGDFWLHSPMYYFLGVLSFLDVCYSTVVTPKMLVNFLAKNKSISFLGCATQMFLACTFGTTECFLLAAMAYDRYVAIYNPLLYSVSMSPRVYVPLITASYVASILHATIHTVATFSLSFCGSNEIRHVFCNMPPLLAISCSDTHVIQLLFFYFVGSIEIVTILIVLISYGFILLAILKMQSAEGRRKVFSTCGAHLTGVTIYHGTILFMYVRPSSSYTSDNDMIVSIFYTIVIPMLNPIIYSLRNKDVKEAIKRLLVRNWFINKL
The method in brief: (§1)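 Assay methods differ from source to source, frequently being transient luciferase assays in mammalian cell lines. For each receptor–molecule pair, the label responsive (active) applies when the original authors judged the measured signal statistically different from baseline, and non-responsive (inactive) applies otherwise.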

A further assay relates to T2, OR5T1.
T2 sequence (whole entry): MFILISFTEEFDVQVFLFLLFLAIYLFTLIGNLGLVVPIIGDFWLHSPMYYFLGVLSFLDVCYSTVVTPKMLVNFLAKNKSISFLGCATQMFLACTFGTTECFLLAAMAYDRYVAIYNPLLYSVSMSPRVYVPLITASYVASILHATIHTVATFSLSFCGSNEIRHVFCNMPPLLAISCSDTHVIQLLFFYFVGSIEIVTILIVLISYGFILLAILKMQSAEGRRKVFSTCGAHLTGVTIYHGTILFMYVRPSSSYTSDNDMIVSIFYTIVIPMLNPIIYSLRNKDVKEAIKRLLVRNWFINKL
An outline of the steps:
as §1

The test system of assay [1] is T3, OR5T2.
T3 sequence (whole entry): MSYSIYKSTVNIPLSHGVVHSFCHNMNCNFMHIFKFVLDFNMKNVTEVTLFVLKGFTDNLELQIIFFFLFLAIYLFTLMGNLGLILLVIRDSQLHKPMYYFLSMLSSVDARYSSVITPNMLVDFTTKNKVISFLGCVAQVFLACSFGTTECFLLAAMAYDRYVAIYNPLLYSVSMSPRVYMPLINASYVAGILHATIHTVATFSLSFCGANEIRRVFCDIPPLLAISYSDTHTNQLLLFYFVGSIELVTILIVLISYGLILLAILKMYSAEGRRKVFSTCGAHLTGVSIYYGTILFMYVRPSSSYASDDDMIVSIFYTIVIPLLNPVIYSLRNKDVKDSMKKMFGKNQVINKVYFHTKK
An outline of the steps:
as §1

In assay [2] the test system is T4, OR5T2.
T4 sequence (whole entry): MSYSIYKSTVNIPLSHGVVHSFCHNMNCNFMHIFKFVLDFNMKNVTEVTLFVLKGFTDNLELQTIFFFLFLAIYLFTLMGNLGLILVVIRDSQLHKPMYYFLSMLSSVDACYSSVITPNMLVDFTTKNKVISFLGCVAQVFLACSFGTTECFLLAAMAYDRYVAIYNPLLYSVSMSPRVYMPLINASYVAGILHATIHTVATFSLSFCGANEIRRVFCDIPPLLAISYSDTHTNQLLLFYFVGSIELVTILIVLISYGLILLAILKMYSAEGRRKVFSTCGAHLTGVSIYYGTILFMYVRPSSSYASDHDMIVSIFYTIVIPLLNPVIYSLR
The method in brief:
as §1
The source holds these as a separate data set.

The next assay deals with T5, OR5T3.
T5 sequence (whole entry): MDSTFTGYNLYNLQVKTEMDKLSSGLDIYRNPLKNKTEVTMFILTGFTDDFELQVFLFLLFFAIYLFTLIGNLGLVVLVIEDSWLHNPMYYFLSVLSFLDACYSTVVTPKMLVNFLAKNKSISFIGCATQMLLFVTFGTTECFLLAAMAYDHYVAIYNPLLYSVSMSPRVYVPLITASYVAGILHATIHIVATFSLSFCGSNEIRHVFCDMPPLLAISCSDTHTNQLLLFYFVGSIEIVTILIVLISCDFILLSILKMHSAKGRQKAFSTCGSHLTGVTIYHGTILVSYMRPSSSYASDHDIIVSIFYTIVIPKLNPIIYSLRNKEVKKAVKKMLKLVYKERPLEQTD
The method in brief:
as §1

For a further assay, the target named is T6, OR5V1 (Homo sapiens) (UniProt Q9UGF6).
T6 sequence (whole entry): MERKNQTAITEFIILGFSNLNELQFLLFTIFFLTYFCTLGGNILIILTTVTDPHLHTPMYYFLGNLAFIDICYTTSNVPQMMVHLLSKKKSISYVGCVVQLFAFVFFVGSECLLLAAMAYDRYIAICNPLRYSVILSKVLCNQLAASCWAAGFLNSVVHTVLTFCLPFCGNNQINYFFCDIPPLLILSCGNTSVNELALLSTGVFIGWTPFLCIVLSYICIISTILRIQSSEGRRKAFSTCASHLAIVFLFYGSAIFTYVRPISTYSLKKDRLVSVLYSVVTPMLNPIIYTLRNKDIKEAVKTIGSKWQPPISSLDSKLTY
An outline of the steps:
as §1

Another assay has as its system T7, OR5W2.
T7 sequence (whole entry): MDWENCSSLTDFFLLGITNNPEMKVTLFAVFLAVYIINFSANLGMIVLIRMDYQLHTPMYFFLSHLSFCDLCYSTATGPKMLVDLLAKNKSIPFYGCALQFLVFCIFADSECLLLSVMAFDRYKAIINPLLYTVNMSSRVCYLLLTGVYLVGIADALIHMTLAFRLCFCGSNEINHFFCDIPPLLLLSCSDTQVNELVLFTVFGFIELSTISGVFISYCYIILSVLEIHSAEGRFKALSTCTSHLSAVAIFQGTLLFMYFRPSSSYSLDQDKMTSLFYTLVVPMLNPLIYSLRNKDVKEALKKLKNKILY
The method in brief: as §1

In another assay the target is T8, OR6A2 (Homo sapiens) (UniProt O95222).
T8 sequence (whole entry): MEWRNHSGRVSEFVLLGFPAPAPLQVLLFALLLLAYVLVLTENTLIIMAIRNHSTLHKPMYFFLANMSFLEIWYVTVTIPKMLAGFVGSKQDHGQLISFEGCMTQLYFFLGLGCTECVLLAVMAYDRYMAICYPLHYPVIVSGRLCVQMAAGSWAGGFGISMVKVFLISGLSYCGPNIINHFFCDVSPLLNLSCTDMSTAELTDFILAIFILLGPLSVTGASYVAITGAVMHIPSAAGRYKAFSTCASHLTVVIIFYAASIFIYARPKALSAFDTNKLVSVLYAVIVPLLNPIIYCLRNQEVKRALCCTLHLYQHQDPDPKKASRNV
An outline of the steps: as §1

A further assay relates to T9, OR6B1.
T9 sequence (whole entry): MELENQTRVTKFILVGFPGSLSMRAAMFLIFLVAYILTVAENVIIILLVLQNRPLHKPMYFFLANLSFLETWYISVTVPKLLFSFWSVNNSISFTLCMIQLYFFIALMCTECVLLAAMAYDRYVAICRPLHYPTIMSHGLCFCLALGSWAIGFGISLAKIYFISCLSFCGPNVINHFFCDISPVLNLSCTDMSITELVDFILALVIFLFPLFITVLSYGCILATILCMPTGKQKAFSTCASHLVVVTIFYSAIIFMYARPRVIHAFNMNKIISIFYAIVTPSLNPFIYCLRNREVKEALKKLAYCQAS
The method in brief:
as §1

In the next assay the test system is T10, OR6B2.
T10 sequence (whole entry): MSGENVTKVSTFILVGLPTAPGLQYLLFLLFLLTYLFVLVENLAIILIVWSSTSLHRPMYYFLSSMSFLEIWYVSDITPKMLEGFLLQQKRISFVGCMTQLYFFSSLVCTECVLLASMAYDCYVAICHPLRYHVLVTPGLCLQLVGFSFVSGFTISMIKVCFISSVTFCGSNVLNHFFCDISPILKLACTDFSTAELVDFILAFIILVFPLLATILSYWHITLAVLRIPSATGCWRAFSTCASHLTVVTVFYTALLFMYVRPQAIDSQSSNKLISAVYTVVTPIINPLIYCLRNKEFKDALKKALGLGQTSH
The method in brief: as §1

For a further assay, the system named is T11, OR6B3.
T11 sequence (whole entry): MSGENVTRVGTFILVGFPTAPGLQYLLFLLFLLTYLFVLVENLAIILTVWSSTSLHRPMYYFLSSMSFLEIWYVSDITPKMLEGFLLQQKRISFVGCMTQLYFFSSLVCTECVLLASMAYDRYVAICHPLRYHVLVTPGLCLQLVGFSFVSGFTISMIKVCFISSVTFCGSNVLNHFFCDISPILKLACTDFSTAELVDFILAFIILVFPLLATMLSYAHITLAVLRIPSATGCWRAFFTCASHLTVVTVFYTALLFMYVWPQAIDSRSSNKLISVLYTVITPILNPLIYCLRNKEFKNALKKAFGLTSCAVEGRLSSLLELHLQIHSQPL
The method in brief:
as §1

The subject of another assay is T12, OR6C1.
T12 sequence (whole entry): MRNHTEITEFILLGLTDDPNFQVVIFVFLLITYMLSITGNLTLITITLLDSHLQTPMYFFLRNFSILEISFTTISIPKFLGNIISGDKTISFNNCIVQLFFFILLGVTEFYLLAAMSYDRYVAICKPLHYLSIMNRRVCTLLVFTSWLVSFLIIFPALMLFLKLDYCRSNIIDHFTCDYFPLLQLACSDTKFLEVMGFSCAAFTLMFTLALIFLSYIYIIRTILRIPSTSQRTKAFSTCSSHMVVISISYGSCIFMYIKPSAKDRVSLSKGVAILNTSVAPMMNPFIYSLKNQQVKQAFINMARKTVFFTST
An outline of the steps: as §1

The target in a further assay is T13, OR6C2 (Homo sapiens) (UniProt Q9NZP2).
T13 sequence (whole entry): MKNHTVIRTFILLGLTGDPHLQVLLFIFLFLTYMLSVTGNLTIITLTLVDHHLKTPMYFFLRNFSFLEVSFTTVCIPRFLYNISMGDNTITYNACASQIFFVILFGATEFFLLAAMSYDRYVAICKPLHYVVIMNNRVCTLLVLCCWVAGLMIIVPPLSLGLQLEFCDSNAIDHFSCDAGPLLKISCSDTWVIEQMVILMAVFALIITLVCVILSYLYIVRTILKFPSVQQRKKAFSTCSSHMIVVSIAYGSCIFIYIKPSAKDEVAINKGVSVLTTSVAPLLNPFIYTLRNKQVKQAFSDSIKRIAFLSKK
An outline of the steps:
as §1

In the next assay the target is T14, OR6C3 (Homo sapiens) (UniProt Q9NZP0).
T14 sequence (whole entry): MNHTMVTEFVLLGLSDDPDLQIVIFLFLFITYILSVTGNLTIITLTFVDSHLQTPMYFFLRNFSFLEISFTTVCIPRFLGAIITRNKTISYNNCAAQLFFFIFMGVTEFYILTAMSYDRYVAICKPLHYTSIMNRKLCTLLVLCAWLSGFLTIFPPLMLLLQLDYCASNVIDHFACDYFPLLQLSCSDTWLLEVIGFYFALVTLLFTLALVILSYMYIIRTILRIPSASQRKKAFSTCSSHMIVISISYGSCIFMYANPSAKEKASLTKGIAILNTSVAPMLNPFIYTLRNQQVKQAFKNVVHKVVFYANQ
The method in brief:
as §1

Structures are written as SMILES. Only a part is listed here, and it is no random draw. Calls are pooled over several reports, among them a noisy single-well screen. Some of the results follow.

Turning to `CC(C)=CCCC(C)=CC=O`, the “odorant receptor agonist call” value with OR5T1 (Homo sapiens), in the assay on OR5T1, with OR5T2 [1], in the assay on OR5T2 [2], with OR5T3 and with OR5V1 (Homo sapiens) was “inactive” in each case. For the same molecule, the “odorant receptor agonist call” value with OR5W2, with OR6A2 (Homo sapiens), in the assay with OR6B1, in the assay on OR6B2, in the assay with OR6B3 and with OR6C1 was “inactive” throughout. Moreover, the “odorant receptor agonist call” value with OR6C2 (Homo sapiens) and with OR6C3 (Homo sapiens) was “inactive” in each case.

Regarding `CCCCCCCOC(C)=O`, the “odorant receptor agonist call” value with OR5T1 (Homo sapiens), in the assay with OR5T1, in the assay with OR5T2 [1], in the assay with OR5T2 [2], in the assay on OR5T3 and in the assay with OR5V1 (Homo sapiens) was “inactive” throughout. The “odorant receptor agonist call” value with OR5W2, in the assay with OR6A2 (Homo sapiens), with OR6B1, with OR6B2, in the assay with OR6B3 and in the assay on OR6C1 was “inactive” each time. Besides, the “odorant receptor agonist call” value with OR6C2 (Homo sapiens) and in the assay with OR6C3 (Homo sapiens) was “inactive” each time.

Turning to `CCCCCCCCCC=O`, the “odorant receptor agonist call” value with OR5T1 (Homo sapiens), in the assay with OR5T1, in the assay on OR5T2 [1], in the assay with OR5T2 [2], in the assay with OR5T3 and in the assay with OR5V1 (Homo sapiens) was “inactive” throughout. Besides, the “odorant receptor agonist call” value in the assay with OR5W2, in the assay with OR6A2 (Homo sapiens), with OR6B1, with OR6B2, with OR6B3 and with OR6C1 was “inactive” throughout. Further, the “odorant receptor agonist call” value with OR6C2 (Homo sapiens) and in the assay with OR6C3 (Homo sapiens) was “inactive” throughout.

Turning to `CCCCCCOC(=O)CCC`, the “odorant receptor agonist call” value with OR5T1 (Homo sapiens), in the assay on OR5T1, with OR5T2 [1], in the assay with OR5T2 [2], in the assay with OR5T3 and with OR5V1 (Homo sapiens) was “inactive” each time. Also, the “odorant receptor agonist call” value in the assay on OR5W2, with OR6A2 (Homo sapiens), with OR6B1, in the assay with OR6B2, in the assay on OR6B3 and in the assay on OR6C1 was “inactive” throughout. Moreover, the “odorant receptor agonist call” value with OR6C2 (Homo sapiens) and with OR6C3 (Homo sapiens) was “inactive” each time.

`CC1CCC(C(C)C)C(O)C1` (stereo not given): the “odorant receptor agonist call” value with OR5T1 (Homo sapiens), in the assay on OR5T1, with OR5T2 [1], in the assay on OR5T2 [2], with OR5T3 and with OR5V1 (Homo sapiens) was “inactive” throughout. Also, the “odorant receptor agonist call” value with OR6A2 (Homo sapiens), in the assay with OR6B1, in the assay on OR6B2, in the assay on OR6B3, in the assay on OR6C1 and with OR6C2 (Homo sapiens) was “inactive” in each case. Besides, in the assay with OR6C3 (Homo sapiens), the “odorant receptor agonist call” value is “inactive”. For the same molecule, the “odorant receptor agonist call” value in the assay with OR5W2 is “active”.
